Results taken from the supplement of paper PMC8728848.
Some of the results follow.

How the values were obtained:
Experiment in all cases: glycan array binding signal (z-score within array); higher = stronger binding
Details in all cases: glycan notation: IUPAC condensed, linker removed
[1] = target: Fuc(a1-3)[Gal(b1-4)]GlcNAc6S
How it was run: (§1)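 The Consortium for Functional Glycomics database supplied 3228 glycan arrays, of which those lacking an available protein sequence were dropped. The binding signal, a within-array Z-score, was averaged across arrays of the same protein sequence and across linkers. Negative scores can be read as non-binding.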

[2] = target: Fuc(a1-3)[Gal3S(b1-4)]GlcNAc
How it was run: as §1

[3] = target: Fuc(a1-3)[Gal3S(b1-4)]GlcNAc6S
How it was run: as §1

[4] = target: Fuc(a1-3)[GalNAc(b1-4)]GlcNAc
How it was run: as §1

Fuc(a1-4)GlcNAc = target: Fuc(a1-4)GlcNAc
How it was run: as §1

Fuc(b1-3)GlcNAc = target: Fuc(b1-3)GlcNAc
How it was run: as §1

Gal(a1-2)Gal = target: Gal(a1-2)Gal
How it was run: as §1

Gal(a1-3)Gal = target: Gal(a1-3)Gal
How it was run: as §1

Gal(a1-3)Gal(b1-3)GlcNAc = target: Gal(a1-3)Gal(b1-3)GlcNAc
How it was run: as §1

[5] = target: Gal(a1-3)Gal(b1-3)GlcNAc(b1-2)Man(a1-3)[Gal(a1-3)Gal(b1-3)GlcNAc(b1-2)Man(a1-6)]Man(b1-4)GlcNAc(b1-4)GlcNAc
How it was run: as §1

[6] = target: Gal(a1-3)Gal(b1-3)GlcNAc(b1-3)GalNAc
How it was run: as §1

[7] = target: Gal(a1-3)Gal(b1-3)[Fuc(a1-4)]GlcNAc(b1-2)Man(a1-3)[Gal(a1-3)Gal(b1-3)[Fuc(a1-4)]GlcNAc(b1-2)Man(a1-6)]Man(b1-4)GlcNAc(b1-4)GlcNAc
How it was run: as §1

Gal(a1-3)Gal(b1-4)Glc = target: Gal(a1-3)Gal(b1-4)Glc
How it was run: as §1

Gal(a1-3)Gal(b1-4)GlcNAc = target: Gal(a1-3)Gal(b1-4)GlcNAc
How it was run: as §1

[8] = target: Gal(a1-3)Gal(b1-4)GlcNAc(b1-3)GalNAc
How it was run: as §1

[9] = target: Gal(a1-3)Gal(b1-4)[Fuc(a1-3)]GlcNAc
How it was run: as §1

[10] = target: Gal(a1-3)Gal(b1-4)[Fuc(a1-3)]GlcNAc(b1-2)Man(a1-3)[Gal(a1-3)Gal(b1-4)[Fuc(a1-3)]GlcNAc(b1-2)Man(a1-6)]Man(b1-4)GlcNAc(b1-4)GlcNAc
How it was run: as §1

Gal(a1-3)GalNAc = target: Gal(a1-3)GalNAc
How it was run: as §1

[11] = target: Gal(a1-3)[Gal(a1-4)]Gal(b1-4)GlcNAc
How it was run: as §1

[12] = target: Gal(a1-4)Gal(b1-3)GlcNAc(b1-2)Man(a1-3)[Gal(a1-4)Gal(b1-3)GlcNAc(b1-2)Man(a1-6)]Man(b1-4)GlcNAc(b1-4)GlcNAc
How it was run: as §1

Gal(a1-4)Gal(b1-4)Glc = target: Gal(a1-4)Gal(b1-4)Glc
How it was run: as §1

Gal(a1-4)Gal(b1-4)GlcNAc = target: Gal(a1-4)Gal(b1-4)GlcNAc
How it was run: as §1

[13] = target: Gal(a1-4)Gal(b1-4)GlcNAc(b1-2)Man(a1-3)[Gal(a1-4)Gal(b1-4)GlcNAc(b1-2)Man(a1-6)]Man(b1-4)GlcNAc(b1-4)GlcNAc
How it was run: as §1

[14] = target: Gal(a1-4)Gal(b1-4)GlcNAc(b1-3)Gal(b1-4)Glc
How it was run: as §1

Gal(a1-4)GlcNAc = target: Gal(a1-4)GlcNAc
How it was run: as §1

Gal(a1-6)Glc = target: Gal(a1-6)Glc
How it was run: as §1

Gal(b1-2)Gal = target: Gal(b1-2)Gal
How it was run: as §1

Gal(b1-3)Gal = target: Gal(b1-3)Gal
How it was run: as §1

Gal(b1-3)Gal(b1-4)GlcNAc = target: Gal(b1-3)Gal(b1-4)GlcNAc
How it was run: as §1

[15] = target: Gal(b1-3)Gal(b1-4)GlcNAc(b1-2)Man(a1-3)[Gal(b1-3)Gal(b1-4)GlcNAc(b1-2)Man(a1-6)]Man(b1-4)GlcNAc(b1-4)GlcNAc
How it was run: as §1

Gal(b1-3)GalNAc = target: Gal(b1-3)GalNAc
How it was run: as §1

[16] = target: Gal(b1-3)GalNAc(a1-3)[Fuc(a1-2)]Gal(b1-4)Glc
How it was run: as §1

[17] = target: Gal(b1-3)GalNAc(a1-3)[Fuc(a1-2)]Gal(b1-4)GlcNAc
How it was run: as §1

[18] = target: Gal(b1-3)GalNAc(b1-3)Gal(a1-4)Gal(b1-4)Glc
How it was run: as §1

[19] = target: Gal(b1-3)GalNAc(b1-4)Gal(b1-4)Glc
How it was run: as §1

[20] = target: Gal(b1-3)GalNAc(b1-4)[Neu5Ac(a2-3)]Gal(b1-4)Glc
How it was run: as §1

Gal(b1-3)GlcNAc = target: Gal(b1-3)GlcNAc
How it was run: as §1

B1: rPitB (Streptococcus pneumoniae), A0A0I7U739 (protein)
chain: MSEIEIINAKKIYHDVPVIENLNITIPKGSLFTLLGASGCGKTTLLRMIAGFNSIKDGEFYFDDTKINNMEPSKRNIGLVFQNYAIFPHLTVRDNVAFGLMQKKVPKEELIQQTNKYLELMQIAQYAD
glycan array binding signal (z-score) [1]: -0.514 | glycan array binding signal (z-score) [2]: -0.426 | glycan array binding signal (z-score) [3]: 0.928 | glycan array binding signal (z-score) [4]: 0.122 | glycan array binding signal (z-score) (Fuc(a1-4)GlcNAc): -0.579 | glycan array binding signal (z-score) (Fuc(b1-3)GlcNAc): -0.161 | glycan array binding signal (z-score) (Gal(a1-2)Gal): -0.313 | glycan array binding signal (z-score) (Gal(a1-3)Gal): -1.07 | glycan array binding signal (z-score) (Gal(a1-3)Gal(b1-3)GlcNAc): -0.408 | glycan array binding signal (z-score) [5]: 1.52 | glycan array binding signal (z-score) [6]: 0.498 | glycan array binding signal (z-score) [7]: 0.372 | glycan array binding signal (z-score) (Gal(a1-3)Gal(b1-4)Glc): -0.617 | glycan array binding signal (z-score) (Gal(a1-3)Gal(b1-4)GlcNAc): 0.196 | glycan array binding signal (z-score) [8]: 0.528 | glycan array binding signal (z-score) [9]: -0.839 | glycan array binding signal (z-score) [10]: 0.572 | glycan array binding signal (z-score) (Gal(a1-3)GalNAc): -0.409 | glycan array binding signal (z-score) [11]: 0.488 | glycan array binding signal (z-score) [12]: 0.766 | glycan array binding signal (z-score) (Gal(a1-4)Gal(b1-4)Glc): 1.33 | glycan array binding signal (z-score) (Gal(a1-4)Gal(b1-4)GlcNAc): -0.022 | glycan array binding signal (z-score) [13]: 1.43 | glycan array binding signal (z-score) [14]: -0.665 | glycan array binding signal (z-score) (Gal(a1-4)GlcNAc): 0.017 | glycan array binding signal (z-score) (Gal(a1-6)Glc): -0.354 | glycan array binding signal (z-score) (Gal(b1-2)Gal): -1.01 | glycan array binding signal (z-score) (Gal(b1-3)Gal): 0.268 | glycan array binding signal (z-score) (Gal(b1-3)Gal(b1-4)GlcNAc): 0.386 | glycan array binding signal (z-score) [15]: -0.088 | glycan array binding signal (z-score) (Gal(b1-3)GalNAc): -0.203 | glycan array binding signal (z-score) [16]: -0.585 | glycan array binding signal (z-score) [17]: 0.006 | glycan array binding signal (z-score) [18]: -0.751 | glycan array binding signal (z-score) [19]: 0.529 | glycan array binding signal (z-score) [20]: -1.3 | glycan array binding signal (z-score) (Gal(b1-3)GlcNAc): -0.704
